In article PMC11707698, “Structure of an ex vivoDrosophila TOM complex determined by single-particle cryoEM” (IUCrJ, 2025):

Target: T1, Drosophila Tom40 subunit fused to a C-terminal FLAG-HA epitope tag (D. melanogaster) (UniProt Q9U4L6)
T1 sequence: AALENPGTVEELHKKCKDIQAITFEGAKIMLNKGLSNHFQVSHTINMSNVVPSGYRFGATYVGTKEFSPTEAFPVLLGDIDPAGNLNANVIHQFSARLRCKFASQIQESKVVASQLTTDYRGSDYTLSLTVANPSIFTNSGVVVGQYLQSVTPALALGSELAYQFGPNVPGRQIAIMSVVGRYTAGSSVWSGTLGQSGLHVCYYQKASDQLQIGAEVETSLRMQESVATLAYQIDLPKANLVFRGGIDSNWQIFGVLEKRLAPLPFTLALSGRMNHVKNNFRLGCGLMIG
Assay: cryo-EM structure; single-particle cryoEM of the TOM core complex assembled in the fly retina, FLAG-purified as a whole and reconstituted into non-ionic amphipol; graphene-coated grids; C2 symmetry; 3.3 Å

- binding: binds
Substance: Tom7 (endogenous Drosophila TOM subunit)

These are yes or no findings as the source states them, for the method shown. A result given as binding can be weak or reduced; the word gives no strength. Sequences can lack the tags named with a protein.
